Source: PubChem BioAssay AID1224826 (NIAID, 2016)

- Aim: 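Regulators of Tlr4 signalling leading to Tnf-alpha expression in macrophages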 (primary screen)
- System: RAW264.7 G9 macrophages from mouse bearing reporters for p65 (GFP) and the Tnf promoter (mCherry)
- Reagents: siRNA pool against mouse genes, 100 nM
- Duration: 16 h of LPS stimulation, after 2 days of siRNA transfection
- Conditions: bacterial lipopolysaccharide (Salmonella minnesota R595), 10 ng/ml
- Measurement: 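Nuclear mCherry signal of the Tnf promoter reporter measured by imaging after background removal, scaled to each plate median and turned into robust z-scores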
- Scale: Tnf reporter robust z-score: higher = stronger Tnf promoter reporter signal after LPS; Tnf reporter intensity: higher = stronger Tnf promoter reporter signal
- Call rule: 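Called active when robust z-score is at most -1.3, matching the median of the Tlr4 knock-down control, or over 3; control wells and wells with under 50 cells never active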
- Meaning of the calls: active = Tnf reporter clearly lowered or raised; inactive = no clear change in Tnf reporter
Shown is an unselected part of about 17,000 deposited reagents. About 1,110 of all reagents (6.6%) were called active. 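Active means lowered or raised reporter signal; replicate intensities are raw and not normalised per plate.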

no.	Gene	Tnf reporter robust z-score	fewer than 50 cells in well	Tnf reporter intensity, replicate 1	Tnf reporter intensity, replicate 2	outcome
1	Kcnab3	0.45	enough cells in well	255	188	inactive
2	Ust	-1.52	enough cells in well	98.7	73.5	active
3	4933434M16Rik	1.35	enough cells in well	275	198	inactive
4	Mybph	-0.83	enough cells in well	150	84.2	inactive
5	Coa7		fewer than 50 cells per well; well left out of calls	186	34.6	inactive
6	Tet2	1.72	enough cells in well	299	179	inactive
7	Or2a14	1.78	enough cells in well	99.3	190	inactive
8	Cyb5a	0.37	enough cells in well	225	267	inactive
9	Fam149b	-1.32	enough cells in well	77.2	104	active
10	Adamts5	1.83	enough cells in well	252	297	inactive
11	Mical3	0.01	enough cells in well	238	107	inactive
12	Scgb3a1	-0.7	enough cells in well	99.5	96	inactive
13	Or52n2c	0.08	enough cells in well	113	105	inactive
14	Or9a4		fewer than 50 cells per well; well left out of calls	50.9	60.7	inactive
15	Srebf1	0.1	enough cells in well	313	202	inactive
16	Or6c214		fewer than 50 cells per well; well left out of calls	34.3	41.2	inactive
17	BC016548	-0.55	enough cells in well	169	169	inactive
18	Chrdl2	-1.18	enough cells in well	65.5	153	inactive
19	Glra1	-1.02	enough cells in well	147	131	inactive
20	Rln1		fewer than 50 cells per well; well left out of calls	146	71.1	inactive
21	Or8k24	0.37	enough cells in well	181	193	inactive
22	Cldn15	-0.1	enough cells in well	110	237	inactive
23	Pgcka1	-1.73	enough cells in well	124	18.4	active
24	Ephb1		fewer than 50 cells per well; well left out of calls	165	130	inactive
25	Prdx1	0.62	enough cells in well	259	265	inactive
26	Slc4a2		fewer than 50 cells per well; well left out of calls	103	135	inactive
27	Prm3	-0.08	enough cells in well	130	122	inactive
28	Polr2a	-1.59	enough cells in well	118	69.1	active
29	Efemp2	0.1	enough cells in well	217	103	inactive
30	Larp4b	-0.71	enough cells in well	197	150	inactive
31	Pak5		fewer than 50 cells per well; well left out of calls	147	122	inactive
32	Atp8b5	2.24	enough cells in well	358	98.5	inactive
33	Clock	-0.32	enough cells in well	230	176	inactive
34	Cyp4a12a	1.57	enough cells in well	226	278	inactive
35	Hnrnpab	0.09	enough cells in well	231	185	inactive
36	Klhl7	1.9	enough cells in well	226	277	inactive
37	Jtb	-0.36	enough cells in well	181	107	inactive
38	Ntrk1	0.82	enough cells in well	256	200	inactive
39	Opalin	-0.24	enough cells in well	128	68.4	inactive
40	Sfrp1	0.74	enough cells in well	366	254	inactive

4 of these entries in another layout.
{"Gene":"Adamts5","Tnf reporter robust z-score":1.83,"fewer than 50 cells in well":"enough cells in well","Tnf reporter intensity, replicate 1":252,"Tnf reporter intensity, replicate 2":297,"outcome":"inactive"}
{"Gene":"Mical3","Tnf reporter robust z-score":0.01,"fewer than 50 cells in well":"enough cells in well","Tnf reporter intensity, replicate 1":238,"Tnf reporter intensity, replicate 2":107,"outcome":"inactive"}
{"Gene":"Scgb3a1","Tnf reporter robust z-score":-0.7,"fewer than 50 cells in well":"enough cells in well","Tnf reporter intensity, replicate 1":99.5,"Tnf reporter intensity, replicate 2":96,"outcome":"inactive"}
{"Gene":"Or52n2c","Tnf reporter robust z-score":0.08,"fewer than 50 cells in well":"enough cells in well","Tnf reporter intensity, replicate 1":113,"Tnf reporter intensity, replicate 2":105,"outcome":"inactive"}
